Patent US3950537A, “Gastrointestinally active thioureas” (Rohm and Haas Company, priority 1975, dated 1976)

Key:
[1] = tested on: charcoal entering the cecum; experiment: Antimotility test (charcoal entering the cecum); format: in vivo, mice (adult male); settings: Mus musculus, po, 3.5 h, read-out: Antimotility ED50 (prevented the charcoal from entering the cecum in 50% of the treated mice)
diarrhea = experiment: Antidiarrheal test (castor oil diarrhea); format: in vivo, Swiss-Webster mice (adult male); settings: Mus musculus, po, 3 h, read-out: Antidiarrheal ED50 (inhibited diarrhea in 50% of the treated mice)
Protocol: Compounds which were active in the antimotility test were then evaluated in a secondary test which measured a counter-action on diarrhea. This was another type of antimotility test adapted from that reported by Janssen in U.S. Pat. No. 3,539,579. In this test adult male Swiss-Webster mice weighing 30 to 40 g. were employed, using 6 mice per treatment. The test compound was administered orally in a dosage series with a maximum of 30 mg./kg. either in water if soluble or else in 0.5% methyl cellulose. One hour after treatment, each animal received a single dose of 0.3 ml. of castor oil, administered orally. The animals were then individually caged and provided food and water. […] The results are reported in terms of an ED50, i.e., the dosage in mg./kg. which inhibited diarrhea in 50% of the treated mice.

Question: With `CN1CC[C@]23c4c5ccc(O)c4O[C@H]2[C@@H](O)C=C[C@H]3[C@H]1C5.O=S(=O)(O)O` [morphine sulfate, reference compound] as the molecule, how does the ED50 [1] read?
Answer: 9.5 mg/kg

Question: What about the ED50 (diarrhea) of the same molecule?
Answer: 14 mg/kg
